Substitutions are numbered along the chain they refer to. These are yes or no findings as the source states them, for the method shown. Some results given as binding are weak or reduced against the parent protein; the word gives no strength. Blank lines part the entries; values can stand above or below the binder they belong to.
Tests used:
[1] = target: Cynomolgus CTGF-Fc (fusion protein of cynomolgus CTGF coding region with Fc) (cynomolgus); assay: ELISA
[2] = target: human CTGF (antigen of the Biacore assays) (human) (UniProt P29279); assay: Biacore

Protein sequences, listed by entry. Tags and fused reporters are not part of them. Residues count along the entry.
UniProt P29279, residues 27-349: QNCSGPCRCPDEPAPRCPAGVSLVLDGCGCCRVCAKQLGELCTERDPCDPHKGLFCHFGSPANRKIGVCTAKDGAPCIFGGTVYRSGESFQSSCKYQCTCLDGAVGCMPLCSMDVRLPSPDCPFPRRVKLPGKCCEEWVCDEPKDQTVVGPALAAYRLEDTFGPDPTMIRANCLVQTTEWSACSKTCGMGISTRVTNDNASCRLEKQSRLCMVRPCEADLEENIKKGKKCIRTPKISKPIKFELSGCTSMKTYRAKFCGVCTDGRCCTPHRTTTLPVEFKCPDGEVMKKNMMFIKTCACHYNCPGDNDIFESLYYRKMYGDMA

- binding [1]: binds
- binding [2]: binds
B1: Hu147-11wk (antibody, human IgG1, kappa, V domains shown)
VH: EVQLVESGGGLVQPGGSLRLSCAASGFTFSTYAMNWVRQAPGKGLEWVGRIRTKSNNYATYYADSVKDRFTISRDDSKNSLYLQMNSLKTEDTAVYYCVETGFAYWDQGTLVTVSS
VL: EIVLTQSPATLSLSPGERATLSCSASSSVSYMHWFQQKPGQSPRLLIYSTSNLASGIPARFSGSGSGTDYTLTISSLEPEDFAVYYCQQRSSYPLTFGQGTKLEIKR

- binding [1]: binds
B2: Hu147-15wk (antibody, human IgG1, kappa, V domains shown)
VH: B1 VH
VL: DIQLTQSPSSLSASVGDRVTITCSASSSVSYMHWFQQKPGKSPKLWIYSTSNLASGVPSRFSGSGSGTDYTLTISSLQPEDFATYYCQQRSSYPLTFGQGTKLEIKR

- binding [1]: binds
- binding [2]: binds
B3: Hu147-14wk (antibody, human IgG1, kappa, V domains shown)
VH: B1 VH
VL: B2 VL with L4M, W46L

- binding [1]: binds
- binding [2]: binds
B4: Hu147-13wk (antibody, human IgG1, kappa, V domains shown)
VH: B1 VH
VL: B1 VL with R44K, L46W, I57V

- binding [1]: binds
- binding [2]: binds
B5: Hu147-12wk (antibody, human IgG1, kappa, V domains shown)
VH: B1 VH
VL: B1 VL with R44K

- binding [1]: binds
B6: Hu95-51yk (antibody, human IgG1, kappa, V domains shown)
VH: EVQLVQSGAEVKKPGASVKVSCRASGFTFTNYAIHWVKQAPGQRLEWMGLVYPYTGGTAYNQKFKDKVTLTFDTSASTAYMELSSLRSEDTAVYYCARWGMIPGTNSYFDVWGQGTTVTVSS
VL: EIVLTQSPATLSLSPGERATLSCRASSSVSYIHWYQQKPGQAPRPWIYATSNLASGIPARFSGSGSGTDYTLTISRLEPEDFAVYYCQQWNSNPWTFGGGTKVEIKR

- binding [2]: binds
B7: chimeric antibody Ch147 (antibody, human IgG1, kappa, V domains shown)
VH: EVQLVESGGGLVQPEGSLKLSCAASGFSFNTYAMNWVRQAPGKGLEWVARIRTKSNNYATYYADSVKDRFTISRDDSESMLYLQMNNLKTEDTAMYYCVETGFAYWDQGTLVTVSA
VL: QIVLTQSPAIMSASPGEKVTITCSASSSVSYMHWFQQKPGTSPKLWIYSTSNLASGVPARFSGSGSGTSYSLTISRMEAEDAATYYCQQRSSYPLTFGAGTKLELKR

- binding [1]: binds
- binding [2]: binds
B8: Hu147-32wk (antibody, human IgG1, kappa, V domains shown)
VH: B1 VH with T28S, S30N, G49A, K78E, N79S
VL: B1 VL with R44K

- binding [1]: binds
B9: Hu147-24wk (antibody, human IgG1, kappa, V domains shown)
VH: B1 VH with S30N, G49A
VL: B2 VL with L4M, W46L

- binding [1]: binds
- binding [2]: binds
B10: Hu147-22wk (antibody, human IgG1, kappa, V domains shown)
VH: B1 VH with S30N, G49A
VL: B1 VL with R44K

- binding [1]: binds
- binding [2]: binds
B11: Hu147-23wk (antibody, human IgG1, kappa, V domains shown)
VH: B1 VH with S30N, G49A
VL: B1 VL with R44K, L46W, I57V

- binding [1]: binds
- binding [2]: binds
B12: Hu147-31wk (antibody, human IgG1, kappa, V domains shown)
VH: B1 VH with T28S, S30N, G49A, K78E, N79S
VL: B1 VL

- binding [1]: binds
- binding [2]: binds
B13: Hu147-21wk (antibody, human IgG1, kappa, V domains shown)
VH: B1 VH with S30N, G49A
VL: B1 VL

- binding [1]: binds
- binding [2]: binds
B14: Hu147-33wk (antibody, human IgG1, kappa, V domains shown)
VH: B1 VH with T28S, S30N, G49A, K78E, N79S
VL: B1 VL with R44K, L46W, I57V

- binding [1]: binds
- binding [2]: binds
B15: Hu147-34wk (antibody, human IgG1, kappa, V domains shown)
VH: B1 VH with T28S, S30N, G49A, K78E, N79S
VL: B2 VL with L4M, W46L

- binding [1]: binds
- binding [2]: binds
B16: Hu164-57wl (antibody, human IgG1, lambda, V domains shown)
VH: EVTLKESGPVLVKPTETLTLTCTVSGFSLSTFGVHWIRQPPGKALEWLAVIWRRGGTDYNAAFMSRLTISKDTSKSQVVLTMTNMDPVDTATYYCARDGGFDYWGQGTTVTVSS
VL: ETVVTQEPSLTVSPGGTVTLTCRSSIGAVTTSNYANWVQQKPGQAFRGLIGGTSNRAPWTPARFSGSLLGGKAALTLSGVQPEDEAEYYCALWYSTHYVFGGGTKLTVLG

- binding [1]: binds
- binding [2]: binds
B17: Hu164-87wl (antibody, human IgG1, lambda, V domains shown)
VH: EVQLQESGPGLVKPSQTLSLTCTVSGFSISTFGVHWIRQHPGKGLEWLGVIWRRGGTDYNAAFMSRLTISKDTSKNQVSFKLSSVTAADTAVYYCARDGGFDYWGQGTTVTVSS
VL: B16 VL

- binding [1]: binds
- binding [2]: binds
B18: Hu164-69wl (antibody, human IgG1, lambda, V domains shown)
VH: B16 VH with A44G, A49G, L80F
VL: ESVVTQPPSVSGAPGQRVTISCRSSIGAVTTSNYANWVQQLPGTAFKGLIGGTSNRAPGVPDRFSGSKSGTSASLAITGLQAEDEADYYCALWYSTHYVFGGGTKLTVLG

- binding [1]: binds
- binding [2]: binds
B19: Hu164-77wl (antibody, human IgG1, lambda, V domains shown)
VH: B17 VH with L48I, L67V, F80L
VL: B16 VL

- binding [1]: binds
- binding [2]: binds
B20: Hu164-68wl (antibody, human IgG1, lambda, V domains shown)
VH: B16 VH with A44G, A49G, L80F
VL: ETVVTQEPSFSVSPGGTVTLTCRSSIGAVTTSNYANWVQQTPGQAFRGLIGGTSNRAPGVPDRFSGSILGNKAALTITGAQADDESDYYCALWYSTHYVFGGGTKLTVLG

- binding [2]: binds
B21: chimeric antibody Ch164 (antibody, human IgG1, lambda, V domains shown)
VH: QVQLKQSGPGLVQPSQSLSITCTVSGFSLTTFGVHWIRQSPGKGLEWLGVIWRRGGTDYNAAFMSRLSITKDNSRSHVFFKMTSLQTDDSAIYYCARDGGFDYWGQGTTLTVSS
VL: QAVVTQESALTTSPGGTVILTCRSSIGAVTTSNYANWVQEKPDHLFTGLIGGTSNRAPGVPVRFSGSLIGDKAALTITGAQAEDDAMYFCALWYSTHYVFGGGTKVTVLG

Reference: patent publication US20220324953A1
